{"sequences": {"note": "The chains behind the UniProt entries cited, without tags or fusion partners.", "UniProt P54282": "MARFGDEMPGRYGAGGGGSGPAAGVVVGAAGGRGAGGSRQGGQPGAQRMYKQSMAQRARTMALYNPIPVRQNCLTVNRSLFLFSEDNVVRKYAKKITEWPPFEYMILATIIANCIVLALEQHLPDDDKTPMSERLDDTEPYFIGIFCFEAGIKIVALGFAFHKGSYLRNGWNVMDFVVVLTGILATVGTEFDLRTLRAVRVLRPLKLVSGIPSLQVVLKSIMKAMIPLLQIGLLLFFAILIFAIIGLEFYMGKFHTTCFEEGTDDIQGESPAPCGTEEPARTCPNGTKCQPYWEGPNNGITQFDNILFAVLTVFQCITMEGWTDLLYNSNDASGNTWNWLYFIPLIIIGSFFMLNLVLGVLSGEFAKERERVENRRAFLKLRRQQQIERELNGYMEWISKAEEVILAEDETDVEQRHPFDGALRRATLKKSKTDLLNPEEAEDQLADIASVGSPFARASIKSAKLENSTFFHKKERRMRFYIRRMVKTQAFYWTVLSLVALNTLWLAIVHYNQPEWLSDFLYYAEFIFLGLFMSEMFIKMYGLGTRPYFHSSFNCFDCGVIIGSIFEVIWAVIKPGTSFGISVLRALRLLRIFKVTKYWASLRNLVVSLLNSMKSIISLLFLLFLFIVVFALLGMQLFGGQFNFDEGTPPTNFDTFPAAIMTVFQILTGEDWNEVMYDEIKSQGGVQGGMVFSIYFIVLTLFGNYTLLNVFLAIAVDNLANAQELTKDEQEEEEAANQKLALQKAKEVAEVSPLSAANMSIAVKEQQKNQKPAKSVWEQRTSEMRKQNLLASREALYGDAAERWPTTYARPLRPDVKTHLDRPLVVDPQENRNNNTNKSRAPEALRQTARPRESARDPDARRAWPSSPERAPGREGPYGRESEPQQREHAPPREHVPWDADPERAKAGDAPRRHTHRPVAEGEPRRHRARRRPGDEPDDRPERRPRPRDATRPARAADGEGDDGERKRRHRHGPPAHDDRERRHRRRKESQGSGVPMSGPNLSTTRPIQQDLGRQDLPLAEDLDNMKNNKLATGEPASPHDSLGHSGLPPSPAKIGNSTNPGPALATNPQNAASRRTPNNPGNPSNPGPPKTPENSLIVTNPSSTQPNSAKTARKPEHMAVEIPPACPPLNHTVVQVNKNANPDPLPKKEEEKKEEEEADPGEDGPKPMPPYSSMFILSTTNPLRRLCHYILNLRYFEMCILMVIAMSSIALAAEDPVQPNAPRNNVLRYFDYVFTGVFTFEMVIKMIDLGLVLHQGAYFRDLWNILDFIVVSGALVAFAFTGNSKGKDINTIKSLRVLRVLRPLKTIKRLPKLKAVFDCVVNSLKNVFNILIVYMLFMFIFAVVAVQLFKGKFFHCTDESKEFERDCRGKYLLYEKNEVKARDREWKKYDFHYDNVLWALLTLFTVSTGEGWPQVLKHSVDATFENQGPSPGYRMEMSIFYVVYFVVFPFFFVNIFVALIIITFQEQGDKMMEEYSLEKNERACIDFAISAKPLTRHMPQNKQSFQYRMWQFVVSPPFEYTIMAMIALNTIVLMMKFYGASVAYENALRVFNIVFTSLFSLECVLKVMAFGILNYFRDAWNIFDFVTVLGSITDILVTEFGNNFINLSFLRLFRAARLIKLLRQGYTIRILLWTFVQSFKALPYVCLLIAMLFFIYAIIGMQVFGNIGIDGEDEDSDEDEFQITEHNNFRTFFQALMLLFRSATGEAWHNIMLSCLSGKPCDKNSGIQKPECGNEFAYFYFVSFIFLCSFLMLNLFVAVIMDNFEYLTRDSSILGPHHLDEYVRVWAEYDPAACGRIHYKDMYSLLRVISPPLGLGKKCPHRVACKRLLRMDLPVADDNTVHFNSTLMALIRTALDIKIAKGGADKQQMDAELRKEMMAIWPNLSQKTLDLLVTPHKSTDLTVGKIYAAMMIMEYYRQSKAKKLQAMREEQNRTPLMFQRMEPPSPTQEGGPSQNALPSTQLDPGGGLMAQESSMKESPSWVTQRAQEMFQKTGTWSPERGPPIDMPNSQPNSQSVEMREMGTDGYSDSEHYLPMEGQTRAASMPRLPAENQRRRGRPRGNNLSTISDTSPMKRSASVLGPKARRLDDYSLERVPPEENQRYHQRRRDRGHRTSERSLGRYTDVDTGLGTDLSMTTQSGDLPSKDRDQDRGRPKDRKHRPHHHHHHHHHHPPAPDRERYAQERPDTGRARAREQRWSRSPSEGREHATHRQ"}, "source": "paper PMC11603662", "binders": {"B1": {"name": "endogenous RNF138 (rat forebrain) (enzyme, UniProt Q99PD2 1-209)", "chain": "MSEELSADTSYTEDDFYCPVCQEVLKTPVRTAACQHVFCRKCFLTAMRESGIHCPLCRGSVTRRERACPERAIDLENIMRRVSGSCRCCSKKIKFYRMRHHYKSCKKYQDEYGVSSVIPNVKISQDSVRSSNRSETSASDNTETYQEDTSSSGHPTFKCPLCQESNFTRQRLLDHCNSNHLFQIVPVNLQLDEETQYQTAVEESFQVNM"}}, "target": "endogenous rat CaV2.1 (rat (endogenous in rat forebrain)) (UniProt P54282)", "experiment": "co-IP; rat forebrain lysates immunoprecipitated with the anti-rat CaV2.1 antibody or rabbit IgG; immunoblot of endogenous proteins", "note": "No constants are given. Whether binding was seen depends on the method and setting. Binding seen in cells or lysates may run through a third protein. Some binding calls cover weakened binding; strength is not graded here."}
{"binder": "B1", "values": [{"measurement": "binding", "value": "binds"}]}
